# Test results from PubChem BioAssay AID2685 (National Center for Advancing Translational Sciences (NCATS), 2010).
# The list shows a part of the results. These are further read-outs of the screen, such as a control signal, another cell line or another target. No call is given for them. The list favours compounds with an active or inconclusive main result. The note in brackets gives the kind of curve behind each potency; many fits are weak.
# Assay: qHTS Assay for Lipid Storage Modulators in Drosophila S3 Cells;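 for cell number change: cells counted by Cell Tracker Red CMTPX staining in the red channel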
# Settings: BODIPY lipid droplet fluorescence, 18-24 h; for cell number change: measured here: cell count max response, cells fed with added oleic acid
# Method in brief: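 Drosophila S3 cells loaded with oleic acid (400 uM, as added) and compounds at several concentrations; lipid droplets imaged by 488-nm laser-scanning cytometry, 500–530 nm intensity and object ratio to cell channel. Percent activity normalized to 20 uM Triacsin C.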
# [1] = measured here: cell number channel AC50, cells fed with added oleic acid
# [2] = measured here: lipid fluorescence (Fed channel) AC50, cells fed with added oleic acid
SMILES,cell number change,AC50 [1],AC50 [2]
Cc1nc(-c2ccc(S(=O)(=O)Nc3ccc(S(N)(=O)=O)cc3)cc2)co1,1.32%,,
O=C(NCCCN1CCN(c2ccccc2F)CC1)C1CCN(S(=O)(=O)N2CCOCC2)CC1,-43.6%,"0.92 µM [falling, full curve, poor fit]","0.92 µM [falling, full curve]"
Cc1ccc(NC(=O)NCc2cccnc2)cc1C,-6.94%,,
Cc1cc(C)n(C(=O)c2cc3c(s2)CCCC3)n1,5.05%,,
CCNc1nc(NCC)n2c(SCC(=O)Nc3cccc(F)c3)nnc2n1,,"1.64 µM [rising, partial curve]",
N#CCCN(C(=O)COC(=O)COc1ccc(Cl)cc1)c1ccccc1,-30.8%,,"4.61 µM [falling, partial curve, poor fit]"
CC(=O)c1cccc(OCC(=O)Nc2cc(Cl)ccc2-n2cncn2)c1,-3.5%,"6.51 µM [rising, single point]",
CSC1=NCCN1C(=O)c1ccc(Br)o1,5.16%,"0.651 µM [rising, single point]",
CC(C)NCCOCCSc1ccc(Cl)cc1,,,"6.51 µM [falling, single point]"
Cc1cc(C)c(NC(=O)Cc2ccc(-n3cccc3)cc2)c(C)c1,-14.9%,"0.259 µM [rising, full curve, poor fit]","0.259 µM [rising, partial curve]"
COc1cc(OC)cc(C(=O)Nc2ccc(S(=O)(=O)Nc3ncccn3)cc2)c1,,"0.00517 µM [falling, full curve, poor fit]",
O=C(NCc1cccnc1)Nc1ccc(Cl)cc1Cl,57.5%,"2.91 µM [rising, full curve]",
Cc1ccc(N=CC2=C(O)CC(C)(C)CC2=O)nc1,-14.1%,,"1.64 µM [falling, partial curve]"
COC(=O)[C@H](C)[C@@H]1C[C@@]1(C)[C@@H](NC(=O)OCc1ccccc1)c1ccccc1,-4.22%,,"4.61 µM [rising, partial curve]"
O=[N+]([O-])/C=C/c1cn(Cc2ccc(Cl)cc2)c2ccccc12,-15.9%,,"10.3 µM [falling, partial curve]"
O=C(Cn1nc(CNc2ccc(Cl)cc2)[n+]2c1CCCCC2)c1ccc(Cl)cc1,-37%,"29.1 µM [falling, single point]","18.4 µM [falling, single point]"
Cc1cc(-c2n[nH]c(=S)n2/N=C/c2cccc([N+](=O)[O-])c2)n[nH]1,12.2%,,"3.66 µM [falling, partial curve]"
CCOC(=O)c1csc(NC(=O)c2ccc(S(=O)(=O)N3CCCC3)cc2)n1,26%,"6.51 µM [rising, single point]","6.51 µM [rising, partial curve, poor fit]"

SMILES,cell number change,AC50 [1],AC50 [2]
COc1ccc(OC)c(NC(=O)CSc2nc3cccnc3n2C)c1,,"0.517 µM [rising, single point]","0.58 µM [rising, single point]"
CCOC(=O)C1=C(O)C(=O)N(Cc2cccnc2)C1c1ccc(OC)cc1 (configuration not stated),30.4%,,"22.4 µM [falling, single point]"
CCc1ccc(NC(=O)COC(=O)/C=C/c2c(C)nn(C3CCS(=O)(=O)C3)c2Cl)cc1 (configuration not stated),-42.6%,"0.116 µM [falling, full curve, poor fit]","0.206 µM [falling, full curve]"
O=C1OC2(c3ccccc31)c1cc(I)c(O)c(I)c1Oc1c2cc(I)c(O)c1I,-104%,"2.91 µM [falling, full curve]","3.26 µM [falling, full curve]"
Cc1ccc(S(=O)c2ccc(NC(=O)C3CC3)cc2C#N)cc1 (configuration not stated),-62.3%,"29.1 µM [falling, single point]","29.1 µM [falling, single point]"
O=C(NCC(=O)N1CCC2(CC1)NCCc1[nH]cnc12)c1ccccc1F,-11.6%,,"6.51 µM [falling, single point]"
COC(=O)C1=C(C)NC(=O)NC1c1ccccc1Cl (configuration not stated),7.42%,,
Cc1cc(=O)oc2c(C)c(OC(C)C(=O)NCCCN3CCOCC3)ccc12 (configuration not stated),30.4%,"32.6 µM [rising, single point]",
COc1ccc(CCNC(=O)c2ccc(Cl)cc2)cc1OC,-37.9%,,
Cc1cc(Cl)nc2ccc(Cc3ccc4nc(Cl)cc(C)c4c3)cc12,37.6%,"32.6 µM [rising, single point]","29.1 µM [rising, single point]"
Cc1cccc(CNC(=O)CCn2ccc3cc(S(=O)(=O)N4CCCC4)ccc32)c1,-7.22%,,"29.1 µM [falling, single point]"
CCOc1c(Cl)cc(CNC(C)(C)CC(C)(C)C)cc1OC,-33.9%,"0.146 µM [falling, full curve]",
O=C(OCn1nnc2ccccc2c1=O)c1cn(-c2ccccc2)nc1-c1cccnc1,-34.4%,"0.231 µM [falling, full curve, poor fit]","0.259 µM [rising, full curve, poor fit]"
CCN(CC)C1CC(=O)N(c2ccc(Br)cc2)C1=O (configuration not stated),-37.6%,"32.6 µM [falling, partial curve, poor fit]","13 µM [falling, partial curve]"
COc1ccc(C2N3CC4(C)CN2CC(C)(C3)C4)cc1OC (configuration not stated),0.408%,,"29.1 µM [falling, single point]"
CCn1nccc1C(=O)Nc1cccc(C)c1C,30.1%,"20.6 µM [rising, partial curve, poor fit]","6.51 µM [rising, single point]"
COc1ccc(N2CCN(Cc3nc4ccccc4n3C)CC2)cc1,-4.08%,"0.146 µM [falling, full curve, poor fit]","0.146 µM [falling, full curve, poor fit]"
COc1ccc(/C=N/OCC(=O)Nc2nc3ccccc3s2)cc1,-31.1%,"20.6 µM [falling, single point]","16.4 µM [rising, single point]"

# Quoted from the listing.
# Under AC50 [1], O=C1OC2(c3ccccc31)c1cc(I)c(O)c(I)c1Oc1c2cc(I)c(O)c1I is entered as 2.91 µM [falling, full curve]
# Under AC50 [2], Cc1cc(C)c(NC(=O)Cc2ccc(-n3cccc3)cc2)c(C)c1 is entered as 0.259 µM [rising, partial curve]
